Drawing on US20110223168A1 (published 2011), this text covers binding for 1 molecule.

By UniProt entry, the sequences of proteins in these tests, tags left out. Residues count along the entry.
UniProt P01375, residues 77-233: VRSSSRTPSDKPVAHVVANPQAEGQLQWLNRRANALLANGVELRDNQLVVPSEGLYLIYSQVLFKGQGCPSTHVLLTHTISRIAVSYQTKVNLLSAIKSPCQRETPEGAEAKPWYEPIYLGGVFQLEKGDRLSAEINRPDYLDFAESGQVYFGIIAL

No constants are given. Whether binding was seen depends on the method and setting. Some entries that bind do so weakly or less than the wild type.

The target of the experiment is human TNFα (human, UniProt P01375 77-233). The experiment can be described thus: antigen ELISA. As for the experimental part:
Binding activity of dimeric recombinant proteins was compared to monomer by Protein A/L ELISA or by antigen ELISA. Briefly, a 96 well plate is coated with antigen or Protein A/L overnight at 4° C. The plate washed with 0.05% Tween-PBS, blocked for 2 hrs with 2% Tween-PBS. The sample is added to the plate incubated for 1 hr at room temperature. The plate is washed and incubated with the secondary reagent for 1 hr at room temperature. The plate is washed and developed with TMB substrate. Protein A/L-HRP or India-HRP was used as a secondary reagent.

B1: dAb3 monomer (other)
VL: DIQMTQSPSSLSASVGDRVTITCRASQSVKEFLWWYQQKPGKAPKLLIYMASNLQSGVPSRFSGSGSGTDFTLTISSLQPEDFATYYCQQKFKLPRTFGQGTKVEIKR
notes: Vκ dAb monomer; also called partner dAb in TAR1-5d4
Consider B1, for which the binding result is recorded as “binds”.
